Usually AC50 stands for the midpoint of the concentration-response curve, whichever way the signal moves. A higher AC50 goes with weaker potency.

Some of the results follow. These are further read-outs of the screen, such as a control signal, another cell line or another target. No call is given for them. Compounds called inactive in the main read-out are mostly missing here. Potencies come from curve fits of mixed quality, noted in brackets.

The nature of the experiment: qHTS Assay for Lipid Storage Modulators in Drosophila S3 Cells.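 On cell number change: cells counted by Cell Tracker Red CMTPX staining in the red channel.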 The conditions noted are these: BODIPY lipid droplet fluorescence, 18-24 h; for cell number change: measured here: cell count max response, cells fed with added oleic acid. The gist of the method:
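Drosophila S3 cells got compounds at several concentrations plus oleic acid (400 uM solution). Laser-scanning cytometry with 488 nm excitation read lipid droplets at 500-530 nm and cells at 575-640 nm. Percent activity was relative to 20 uM Triacsin C.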
On the technique in general: Quantitative high-throughput screening tests each substance at several concentrations.

The mark [1] stands for this setting: measured here: lipid fluorescence (Fed channel) AC50, cells fed with added oleic acid.
Setting [2] is: measured here: cell number channel AC50, cells fed with added oleic acid.

Turning to `CC(Sc1nc2scc(-c3ccccc3)c2c(=O)[nH]1)C(=O)NC(N)=O` (configuration not stated), the cell number change was -17.8%. Also, the AC50 under setting [1] was 2.59 µM [falling, partial curve, poor fit].
Turning to `CCOC(=O)C1(Cc2ccccc2)CCCN(C(=O)c2cnn(CC)c2)C1` (configuration not stated), the cell number change was -11%.
Take `CSc1ccc(C#N)cc1NC(=O)c1ccccc1C`: the cell number change was -31.9%. Further, the AC50 under setting [2] is 0.116 µM [falling, full curve, poor fit].
Consider `COc1ccc(Nc2ccc3c(c2)=NC2(CCCCC2)[N+]=3[O-])cc1`, for which the cell number change was -5.5%. The AC50 under setting [1] is 2.31 µM [falling, single point].
`Cc1ccc(NC(=O)CSc2ccccc2)cc1S(=O)(=O)N1CCCCC1`: the cell number change was -11.2%.
Turning to `COc1cccc(C(=O)Nc2ccc(S(=O)(=O)NCc3ccco3)cc2)c1`, the cell number change is -2.6%. Also, the AC50 under setting [1] is 2.59 µM [rising, single point].
Turning to `CC(C)NC(=O)c1ccc(-c2ccccc2C(F)(F)F)o1`, the cell number change was -2.9%. For the same compound, the AC50 under setting [1] is 0.411 µM [rising, single point].
Consider `CCCc1cc(=O)[nH]c(SCC(=O)N2CCN(c3ccccc3)CC2)n1`, for which the cell number change was -10.8%. Further, the AC50 under setting [1] is 0.651 µM [falling, full curve, poor fit].
Consider `Cc1ccc(S(=O)(=O)N(Cc2ccc(C(F)(F)F)cc2)C(=O)N2CCN(C)CC2)cc1`, for which the cell number change turned out to be 150%. In addition, the AC50 under setting [2] was 29.1 µM [rising, single point].
Consider `CCOC(=O)c1sc(NC(=O)C(OC(C)=O)c2ccccc2)nc1C` (configuration not stated), for which the cell number change amounted to 14%.
Turning to `Cc1ncc(CO)c2c1Oc1nc(-c3ccccc3F)nc(SCC(=O)N(C)c3ccccc3)c1C2`, the cell number change is -26.6%. Under setting [2], the AC50 is 0.164 µM [falling, full curve, poor fit]. Besides, the AC50 under setting [1] was 2.91 µM [falling, full curve].
Turning to `O=C(O)COn1c(-c2ccccc2)nc2ccc(Cl)cc21`, the cell number change came out at 10.8%. The AC50 under setting [2] was 3.26 µM [rising, single point]. Further, the AC50 under setting [1] was 2.91 µM [rising, single point].
For `CC1=NN(c2ccccc2)C(=O)/C1=C\C=C1/N(C)c2ccccc2C1(C)C`, the cell number change was -64.5%. Moreover, the AC50 under setting [2] is 10.3 µM [falling, partial curve]. Further, under setting [1], the AC50 was 8.2 µM [falling, partial curve].
Take `COc1ccc(/C(O)=C2/C(=O)C(=O)N(Cc3cccnc3)C2c2ccncc2)cc1F` (configuration not stated): the cell number change was -73.2%. Further, the AC50 under setting [2] was 10.3 µM [falling, partial curve]. Moreover, the AC50 under setting [1] was 6.51 µM [falling, single point].
Regarding `CN(Cc1ccc(F)cc1)C(=O)c1cccc(S(=O)(=O)N2CCN(c3ccc(F)cc3)CC2)c1`, the cell number change is 1.84%. Besides, under setting [1], the AC50 was 1.3 µM [rising, full curve, poor fit].
Consider `Nc1ncnc2nc(SCC(=O)Nc3ccccc3F)[nH]c12`, for which the cell number change is 10%.

The values are drawn from PubChem BioAssay AID2685 (National Center for Advancing Translational Sciences (NCATS), 2010).
